# Publication doi:10.1101/2023.11.06.565760
# For at least one entry, the source does not settle the construct or the ends of the probe. A negative result means that nothing was seen under these conditions. At least one verdict rests on a figure or table, not on a statement of the authors. Weaker means in comparison with the reference protein, sequence or condition of that experiment.
# Test system: mv4Int(369aa)
# Test: EMSA
# [1] = no stabilised C3 with labelled COC' (N1)
# [2] = no effective stabilisation of labelled COC' (N1) binding
# [3] = stabilises binding to labelled COC' (N1)
sequence,measurement,setting,value
CACGTCGTGCTCAACTAGAGTCTTAACTAGAGACCACGTC (double strand) [P1P2 9-bp sites],binding result,[1],no binding
TTTTTAACTAGAACGACCGAGCGGAGAGCTAGTTAATAGA (double strand) [P'1P'3 (P'2 replaced)],binding result,[2],no binding
TTTTTAACTAGAAAATAACTAGAAAGAGCTAGTTAATAGA (double strand) [P'1P'2P'3],binding result,[3],binds
CACGTCGTGCCGAACTAGGGTCCGAACTAGGGACCACGTC (double strand) [P1P2 6-bp sites],binding result,[1],no binding
GCCGACCGAGCGGAATAACTAGAAAGAGCTAGTTAATAGA (double strand) [P'2P'3 (P'1 replaced)],binding result,[2],no binding
TTTTTAACTAGAACGACCGAGCGGAGGCGGCACGCTGTCG (double strand) [P'1 only],binding result,[2],no binding
CACGTCGTGATCAACTAGATTTTTAACTAGAAACCACGTC (double strand) [P1P2 11-bp sites],binding result,[3],binds
CACGTCGTGCGACCGAGCGGTTTTAACTAGAAACCACGTC (double strand) [P2 only],binding result,[2],no binding
GCCGACCGAGCGGAATAACTAGAAAGGCGGCACGCTGTCG (double strand) [P'2 only],binding result,[2],no binding
CACGTCGTGCGACCGAGCGGTGCGGCACGCTGACCACGTC (double strand) [No P site],binding result,[2],no binding
GTTTTTAACTAGAAAATAACTAGAATTC (double strand) [P'1P'2 28 bp],binding result,stabilises complexes with labelled COC' (N1),binds
GCCGACCGAGCGGGCGGCACGCTGAGAGCTAGTTAATAGA (double strand) [P'3 only],binding result,[2],no binding
CACGTCGTGATCAACTAGATTCGACCGAGCGGACCACGTC (double strand) [P1 only],binding result,[2],no binding
TTTTTAACTAGAAAATAACTAGAAAGCGACCGAGCGGTCG (double strand) [P'1P'2 (P'3 replaced)],binding result,[3],binds
GGTATTGTTCAAATCCTGTACTCTCCTTGCGTAAC (double strand) [BOB' WT attB 35 bp],binding result,"with unlabelled P'1P'2, same efficiency as core-attP",binds
"CACGTCGTTTTTAACTAGAAAATAACTAGAATTCCACGTC (double strand) [P'1P'2 40 bp, Cy3]",binding result,with unlabelled COC' DNA,binds
same,binding result,"without COC', no stable binding",binds more weakly
GGTATTGGAAAGAACCTGTACTCTCCTTGCGTAAC (double strand) [COC' WT core-attP 35 bp],binding result,"no arm-site DNA, faint bands and smear, 25 pmol mv4Int",binds more weakly
same,binding result,"with unlabelled P'1P'2 (N6 or N7), C1, C2, C3",binds
CACGTCGTTTTTAACTAGAAAATAACTAGAATTCCACGTC (double strand) [P'1P'2 40 bp],binding result,"with labelled COC' (N1), C2*/C3* mobility changed",binds
